These are yes or no findings as the source states them, for the method shown. Binding seen in cells or lysates may run through a third protein. Some binding calls cover weakened binding; strength is not graded here. Sequences can lack the tags named with a protein.
Target: Jak2 tyrosine kinase (endogenous, M-MOK cells) (human (endogenous in M-MOK)), O60674
Assay: co-IP; M-MOK cells treated with purified WT or mutant Lnk R8, stimulated with TPO, washed and lysed (1% NP-40, 150 mM NaCl, pH 8.0); anti-Jak2 immunoprecipitation, blot with anti-pentaHis; only the binder purified
Conditions: remark: other sources report otherwise

- binding: binds
B1: WT Lnk R8 fusion protein (human wild-type Lnk-6×His-R8), Q9UQQ2 1-575 (protein)
chain: MNGPALQPSSPSSAPSASPAAAPRGWSEFCELHAVAAARELARQYWLFAREHPQHAPLRAELVSLQFTDLFQRYFCREVRDGRAPGRDYRDTGRGPPAKAEASPEPGPGPAAPGLPKARSSEELAPPRPPGPCSFQHFRRSLRHIFRRRSAGELPAAHTAAAPGTPGEAAETPARPGLAKKFLPWSLAREPPPEALKEAVLRYSLADEASMDSGARWQRGRLALRRAPGPDGPDRVLELFDPPKSSRPKLQAACSSIQEVRWCTRLEMPDNLYTFVLKVKDRTDIIFEVGDEQQLNSWMAELSECTGRGLESTEAEMHIPSALEPSTSSSPRGSTDSLNQGASPGGLLDPACQKTDHFLSCYPWFHGPISRVKAAQLVQLQGPDAHGVFLVRQSETRRGEYVLTFNFQGIAKHLRLSLTERGQCRVQHLHFPSVVDMLHHFQRSPIPLECGAACDVRLSSYVVVVSQPPGSCNTVLFPFSLPHWDSESLPHWGSELGLPHLSSSGCPRGLSPEGLPGRSSPPEQIFHLVPSPEELANSLQHLEHEPVNRARDSDYEMDSSSRSHLRAIDNQYTPL
